Laboratory results: PubChem BioAssay AID1259254 (NCATS, 2017)
Screen: 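Genome-wide screen for genes that prevent DNA re-replication in cancer cells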 (primary screen). Cells: human HCT116 colorectal cancer cells. Knock-down reagent: single siRNA against human genes. Duration: 3 days. Measurement: 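Imaged Hoechst DNA stain sorts each cell into a cycle phase by DNA amount; per plate, G2 fraction set to 0% for non-targeting and 100% for GMNN siRNA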. Scale: G2 robust z-score and G2 cells, % of GMNN control: higher = more G2 cells, more excess DNA replication; raw share of cells in G2: higher = larger share of cells with G2 DNA content. Call rule: 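An siRNA counts as active if its G2 robust z-score lies at least 5 MADs above the screen median; here such calls match roughly 38% of GMNN control or more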.
Here is an unselected part of about 59,000 deposited reagents. About 1,550 of all reagents (2.6%) count as active. 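G2 share is only a proxy for re-replication; each gene was hit by three separate siRNAs, and active genes were retested.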 Raw values vary from plate to plate and are shown uncorrected. The numbers tell different reagents against one gene apart. Not given: the amount of reagent.

gene | siRNA no. | G2 robust z-score | G2 cells, % of GMNN control | raw share of cells in G2 (%) | activity call
SLC7A2 | 1 | -1.06 | -4.46 | 3.02 | inactive
SLC7A2 | 2 | 0.173 | 4.19 | 7.09 | inactive
SLC7A2 | 3 | -0.869 | -3.14 | 2.92 | inactive
COL20A1 (collagen type XX alpha 1 chain) | 1 | -0.51 | -0.619 | 2.57 | inactive
COL20A1 (collagen type XX alpha 1 chain) | 2 | -1.04 | -4.37 | 3.94 | inactive
COL20A1 (collagen type XX alpha 1 chain) | 3 | 1.22 | 11.6 | 7.27 | inactive
WDR48 (WD repeat domain 48) | 1 | -0.821 | -2.81 | 3.24 | inactive
WDR48 (WD repeat domain 48) | 2 | 0.158 | 4.08 | 6.41 | inactive
WDR48 (WD repeat domain 48) | 3 | -1.17 | -5.28 | 1.36 | inactive
PFAS (phosphoribosylformylglycinamidine synthase) | 1 | 1.76 | 15.3 | 9.78 | inactive
PFAS (phosphoribosylformylglycinamidine synthase) | 2 | 0.568 | 6.97 | 6.4 | inactive
PFAS (phosphoribosylformylglycinamidine synthase) | 3 | -1.14 | -5.03 | 1.98 | inactive
LEP (leptin) | 1 | -1.22 | -5.62 | 3.24 | inactive
LEP (leptin) | 2 | 0.693 | 7.85 | 8.39 | inactive
LEP (leptin) | 3 | -1.47 | -7.39 | 0.758 | inactive
SORT1 (sortilin 1) | 1 | 0.221 | 4.52 | 6.53 | inactive
SORT1 (sortilin 1) | 2 | -0.497 | -0.526 | 4.48 | inactive
SORT1 (sortilin 1) | 3 | 0.166 | 4.14 | 5.52 | inactive
XAF1 (XIAP associated factor 1) | 1 | -0.318 | 0.729 | 3.86 | inactive
XAF1 (XIAP associated factor 1) | 2 | -0.0794 | 2.41 | 5.29 | inactive
XAF1 (XIAP associated factor 1) | 3 | 0.1 | 3.67 | 4.41 | inactive
USB1 (U6 snRNA biogenesis phosphodiesterase 1) | 1 | 1.31 | 12.2 | 9.5 | inactive
USB1 (U6 snRNA biogenesis phosphodiesterase 1) | 2 | 0.134 | 3.91 | 6.01 | inactive
USB1 (U6 snRNA biogenesis phosphodiesterase 1) | 3 | -0.44 | -0.129 | 2.34 | inactive
FUCA1 (alpha-L-fucosidase 1) | 1 | 0.822 | 8.75 | 6.77 | inactive
FUCA1 (alpha-L-fucosidase 1) | 2 | -0.763 | -2.4 | 4.37 | inactive
FUCA1 (alpha-L-fucosidase 1) | 3 | -0.521 | -0.695 | 5 | inactive
SPATA20 (spermatogenesis associated 20) | 1 | 0.0435 | 3.27 | 5.41 | inactive
SPATA20 (spermatogenesis associated 20) | 2 | 0.661 | 7.62 | 8.8 | inactive
SPATA20 (spermatogenesis associated 20) | 3 | 2.33 | 19.3 | 11.2 | inactive
LOC728999 (retired record) | 1 | 0.0454 | 3.29 | 5.19 | inactive
LOC728999 (retired record) | 2 | 10.8 | 79.2 | 28.9 | active
LOC728999 (retired record) | 3 | -0.632 | -1.48 | 2.53 | inactive
C22orf42 (chromosome 22 open reading frame 42) | 1 | -0.689 | -1.88 | 3.2 | inactive
C22orf42 (chromosome 22 open reading frame 42) | 2 | -0.831 | -2.88 | 2.02 | inactive
C22orf42 (chromosome 22 open reading frame 42) | 3 | -0.228 | 1.36 | 3.54 | inactive

Entries listed so far marked active:
gene | siRNA no. | G2 robust z-score | G2 cells, % of GMNN control | raw share of cells in G2 (%) | activity call
LOC728999 (retired record) | 2 | 10.8 | 79.2 | 28.9 | active

The listing continues.
gene | siRNA no. | G2 robust z-score | G2 cells, % of GMNN control | raw share of cells in G2 (%) | activity call
MBD2 (methyl-CpG binding domain protein 2) | 1 | -1.21 | -5.53 | 3.32 | inactive
MBD2 (methyl-CpG binding domain protein 2) | 2 | 0.316 | 5.19 | 6.57 | inactive
MBD2 (methyl-CpG binding domain protein 2) | 3 | -0.272 | 1.05 | 5.02 | inactive
MORN2 (MORN repeat containing 2) | 1 | 1.24 | 11.7 | 8.68 | inactive
MORN2 (MORN repeat containing 2) | 2 | 4.11 | 31.9 | 14 | inactive
MORN2 (MORN repeat containing 2) | 3 | 0.419 | 5.91 | 5.33 | inactive
SLC12A5 | 1 | -1.45 | -7.21 | 1.8 | inactive
SLC12A5 | 2 | -0.764 | -2.41 | 3.35 | inactive
SLC12A5 | 3 | -0.987 | -3.98 | 4 | inactive
FBXO28 (F-box protein 28) | 1 | 1.09 | 10.6 | 9.16 | inactive
FBXO28 (F-box protein 28) | 2 | 0.417 | 5.9 | 6.57 | inactive
FBXO28 (F-box protein 28) | 3 | -0.0713 | 2.47 | 4.1 | inactive
HAPLN1 (hyaluronan and proteoglycan link protein 1) | 1 | -0.662 | -1.69 | 4.51 | inactive
HAPLN1 (hyaluronan and proteoglycan link protein 1) | 2 | 0.623 | 7.35 | 6.78 | inactive
HAPLN1 (hyaluronan and proteoglycan link protein 1) | 3 | 0.623 | 7.35 | 6.4 | inactive
MCM8 | 1 | -0.37 | 0.364 | 4.92 | inactive
MCM8 | 2 | 5.18 | 39.4 | 21.9 | active
MCM8 | 3 | -0.389 | 0.233 | 4.28 | inactive
HOXA11 (homeobox A11) | 1 | -0.872 | -3.17 | 4.48 | inactive
HOXA11 (homeobox A11) | 2 | -1.03 | -4.29 | 2.63 | inactive
HOXA11 (homeobox A11) | 3 | 0.108 | 3.73 | 6.4 | inactive
LOC646865 (retired record) | 1 | -0.533 | -0.785 | 3.48 | inactive
LOC646865 (retired record) | 2 | 0.318 | 5.2 | 5.16 | inactive
LOC646865 (retired record) | 3 | -0.718 | -2.09 | 2.38 | inactive
RTL5 (retrotransposon Gag like 5) | 1 | -1.11 | -4.88 | 2.31 | inactive
RTL5 (retrotransposon Gag like 5) | 2 | -0.152 | 1.9 | 4.09 | inactive
RTL5 (retrotransposon Gag like 5) | 3 | -1.04 | -4.32 | 2.45 | inactive
EFHD1 (EF-hand domain family member D1) | 1 | 0.381 | 5.65 | 4.79 | inactive
EFHD1 (EF-hand domain family member D1) | 2 | -1.2 | -5.45 | 3.44 | inactive
EFHD1 (EF-hand domain family member D1) | 3 | 1.94 | 16.6 | 8.84 | inactive
U2AF1 (U2 small nuclear RNA auxiliary factor 1) | 1 | 0.178 | 4.22 | 7.38 | inactive
U2AF1 (U2 small nuclear RNA auxiliary factor 1) | 2 | -0.88 | -3.22 | 3.06 | inactive
U2AF1 (U2 small nuclear RNA auxiliary factor 1) | 3 | 0.317 | 5.2 | 6.19 | inactive
